Experimental data as given in PMC11953442, “PIP2-mediated oligomerization of the endosomal sodium/proton exchanger NHE9” (Nature Communications, 2025).
These are yes or no findings as the source states them, for the method shown. Some results given as binding are weak or reduced against the parent protein; the word gives no strength.

Biological target: T1, E. coli NhaA WT-like triple mutant (A109T, Q277G, L296M) (E. coli), P13738
T1 chain: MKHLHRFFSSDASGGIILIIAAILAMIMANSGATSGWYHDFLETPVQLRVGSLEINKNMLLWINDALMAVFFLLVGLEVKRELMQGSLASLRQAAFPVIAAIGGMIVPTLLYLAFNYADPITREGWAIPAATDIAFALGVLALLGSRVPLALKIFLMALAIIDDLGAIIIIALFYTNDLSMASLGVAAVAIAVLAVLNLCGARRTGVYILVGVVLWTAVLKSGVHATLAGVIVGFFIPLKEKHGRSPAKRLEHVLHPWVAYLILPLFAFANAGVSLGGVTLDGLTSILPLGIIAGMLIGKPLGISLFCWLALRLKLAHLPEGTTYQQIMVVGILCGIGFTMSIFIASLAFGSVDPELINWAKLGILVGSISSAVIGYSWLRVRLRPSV
Assay: cryo-EM structure; NhaA triple-mutant-GFP fusion in DDM with 3 mM cardiolipin (18:1) added, 20 mM Tris-HCl pH 7.5, 150 mM NaCl, 0.03% DDM; three cardiolipins modelled at the dimer interface; both purified
Settings: remark: other sources report otherwise

B1: E. coli NhaA WT-like triple mutant (A109T, Q277G, L296M), P13738 1-388 (natural protein)
chain: T1 chain
binding: binds
